In patent US20200331998A1:
These are yes or no findings as the source states them, for the method shown. Some results given as binding are weak or reduced against the parent protein; the word gives no strength.

Sequences of proteins named here, by UniProt entry; tags and fusion partners are left off. Residues count along the entry.
UniProt P15391, residues 20-291: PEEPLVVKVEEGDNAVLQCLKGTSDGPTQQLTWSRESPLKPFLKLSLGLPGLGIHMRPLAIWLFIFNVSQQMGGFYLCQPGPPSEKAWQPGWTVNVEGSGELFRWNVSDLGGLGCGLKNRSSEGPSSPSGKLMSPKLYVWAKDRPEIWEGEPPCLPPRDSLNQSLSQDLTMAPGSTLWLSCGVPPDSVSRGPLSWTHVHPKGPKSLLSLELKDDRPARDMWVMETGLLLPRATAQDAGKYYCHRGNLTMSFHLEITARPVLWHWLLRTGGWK

Columns and labels:
[1] = biological target: UCART19 CAR (anti-CD19 chimeric antigen receptor with a 4G7-derived scFv, on UCART19 cells); assay: flow cytometry on primary human T cells (FIG. 6B legend)
[2] = biological target: UCART19 CAR (anti-CD19 chimeric antigen receptor with a 4G7-derived scFv, on UCART19 cells); assay: flow cytometry on primary human T cells expressing the CAR

With “soluble CD19-hFc (from UniProt P15391 20-291) (Fc fusion)” as the substance, how does the binding [1] read?
The binding was “binds”.

What about the binding [2] of the same substance?
The binding was “binds”.
